{"sequences": {"note": "The chains behind the UniProt entries cited, without tags or fusion partners.", "UniProt Q9Y5A9": "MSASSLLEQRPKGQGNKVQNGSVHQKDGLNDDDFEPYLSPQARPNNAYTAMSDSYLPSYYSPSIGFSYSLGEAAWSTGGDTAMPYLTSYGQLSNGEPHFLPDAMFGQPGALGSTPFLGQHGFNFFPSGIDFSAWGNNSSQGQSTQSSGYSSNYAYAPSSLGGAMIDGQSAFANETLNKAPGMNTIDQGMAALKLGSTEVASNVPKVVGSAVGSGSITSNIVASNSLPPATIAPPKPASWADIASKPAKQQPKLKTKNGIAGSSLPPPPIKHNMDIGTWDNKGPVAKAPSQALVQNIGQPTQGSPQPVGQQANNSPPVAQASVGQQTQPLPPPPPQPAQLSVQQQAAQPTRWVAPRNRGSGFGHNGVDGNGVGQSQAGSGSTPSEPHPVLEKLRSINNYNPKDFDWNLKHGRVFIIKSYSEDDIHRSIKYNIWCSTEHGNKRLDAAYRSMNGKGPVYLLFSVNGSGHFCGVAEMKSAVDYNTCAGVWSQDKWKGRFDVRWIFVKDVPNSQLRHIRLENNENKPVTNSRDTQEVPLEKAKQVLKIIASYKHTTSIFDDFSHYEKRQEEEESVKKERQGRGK", "UniProt P48634": "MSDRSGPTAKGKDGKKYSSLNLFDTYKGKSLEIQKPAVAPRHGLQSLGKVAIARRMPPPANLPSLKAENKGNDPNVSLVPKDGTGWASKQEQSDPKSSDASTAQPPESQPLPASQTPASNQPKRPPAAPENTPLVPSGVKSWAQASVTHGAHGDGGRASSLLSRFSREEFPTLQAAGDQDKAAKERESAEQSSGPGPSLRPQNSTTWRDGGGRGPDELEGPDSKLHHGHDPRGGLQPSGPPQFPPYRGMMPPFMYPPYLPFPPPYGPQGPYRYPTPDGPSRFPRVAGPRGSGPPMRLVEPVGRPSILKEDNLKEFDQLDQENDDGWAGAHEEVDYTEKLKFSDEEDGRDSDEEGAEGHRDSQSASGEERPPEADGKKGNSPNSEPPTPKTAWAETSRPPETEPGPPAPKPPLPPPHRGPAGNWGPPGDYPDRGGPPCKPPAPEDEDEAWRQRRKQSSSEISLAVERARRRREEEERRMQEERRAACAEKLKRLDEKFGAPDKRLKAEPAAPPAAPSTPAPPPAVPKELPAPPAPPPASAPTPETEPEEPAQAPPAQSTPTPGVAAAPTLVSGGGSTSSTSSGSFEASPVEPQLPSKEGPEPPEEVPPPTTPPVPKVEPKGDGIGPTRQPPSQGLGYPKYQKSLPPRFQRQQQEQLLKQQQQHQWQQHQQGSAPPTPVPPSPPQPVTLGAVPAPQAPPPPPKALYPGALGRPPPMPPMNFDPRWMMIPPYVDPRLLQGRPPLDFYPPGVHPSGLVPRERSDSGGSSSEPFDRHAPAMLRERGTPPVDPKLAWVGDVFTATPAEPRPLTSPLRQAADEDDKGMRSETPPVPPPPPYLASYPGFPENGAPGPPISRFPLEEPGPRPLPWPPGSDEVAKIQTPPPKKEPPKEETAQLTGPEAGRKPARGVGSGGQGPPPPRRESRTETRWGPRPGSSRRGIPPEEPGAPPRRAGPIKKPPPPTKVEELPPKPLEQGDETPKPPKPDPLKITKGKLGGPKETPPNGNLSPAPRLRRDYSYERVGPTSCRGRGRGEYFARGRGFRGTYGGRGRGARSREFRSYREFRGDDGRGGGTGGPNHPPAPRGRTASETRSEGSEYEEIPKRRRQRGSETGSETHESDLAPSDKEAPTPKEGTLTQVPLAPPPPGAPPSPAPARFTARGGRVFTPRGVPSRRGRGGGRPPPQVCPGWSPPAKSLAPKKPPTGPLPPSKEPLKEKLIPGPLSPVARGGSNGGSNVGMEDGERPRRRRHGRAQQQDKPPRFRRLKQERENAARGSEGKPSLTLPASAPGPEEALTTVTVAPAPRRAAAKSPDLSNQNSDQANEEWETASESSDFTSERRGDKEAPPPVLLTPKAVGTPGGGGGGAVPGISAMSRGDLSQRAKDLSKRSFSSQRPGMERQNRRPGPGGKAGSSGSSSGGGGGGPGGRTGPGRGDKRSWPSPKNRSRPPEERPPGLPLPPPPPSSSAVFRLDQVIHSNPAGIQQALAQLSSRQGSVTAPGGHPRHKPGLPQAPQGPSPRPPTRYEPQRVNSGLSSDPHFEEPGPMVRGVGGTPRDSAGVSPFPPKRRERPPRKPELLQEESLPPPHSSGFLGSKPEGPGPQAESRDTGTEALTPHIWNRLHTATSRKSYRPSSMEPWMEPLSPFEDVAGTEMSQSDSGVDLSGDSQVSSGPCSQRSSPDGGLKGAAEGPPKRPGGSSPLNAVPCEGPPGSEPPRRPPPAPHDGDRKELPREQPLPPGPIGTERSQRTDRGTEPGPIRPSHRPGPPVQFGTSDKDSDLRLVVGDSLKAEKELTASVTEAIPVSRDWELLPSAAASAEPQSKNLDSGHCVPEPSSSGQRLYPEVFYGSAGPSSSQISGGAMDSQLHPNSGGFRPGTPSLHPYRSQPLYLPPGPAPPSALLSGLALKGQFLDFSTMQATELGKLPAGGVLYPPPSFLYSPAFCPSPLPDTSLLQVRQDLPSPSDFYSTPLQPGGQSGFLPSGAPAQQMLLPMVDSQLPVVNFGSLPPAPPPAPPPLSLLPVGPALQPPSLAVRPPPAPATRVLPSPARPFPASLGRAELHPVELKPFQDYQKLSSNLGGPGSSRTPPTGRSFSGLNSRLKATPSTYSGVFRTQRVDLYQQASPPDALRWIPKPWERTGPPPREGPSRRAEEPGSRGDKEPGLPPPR"}, "source": "paper PMC6318280", "about": "“A novel m^6A reader Prrc2a controls oligodendroglial specification and myelination” (Cell Research, 2018)", "target": "YTHDF2, bait of the affinity purification in HEK293T cells (UniProt Q9Y5A9)", "assay": "affinity purification with mass spectrometry; tandem-affinity purification of the tagged bait from HEK293T cells; bound proteins identified by mass spectrometry", "note": "Results are given in words; binding and its absence hold for the method and conditions named. Binding seen in cells or lysates may run through a third protein. Here binding means that the protein was enriched with, or labelled near, the bait; the list need not be complete.", "data": [{"substance": "PRRC2A, endogenous in HEK293T cells (from UniProt P48634 1-2157)", "values": [{"measurement": "binding", "result": "binds"}]}]}
